In patent US7888349B2, “Piperazine, [1,4]Diazepane, [1,4]Diazocane, and [1,5]Diazocane fused imidazo ring compounds” (3M Innovative Properties Company, priority 2003, dated 2011):
Some entries share one result that the patent states for a list of compounds.

Test system: human peripheral blood mononuclear cells (PBMC)
Assay: Cytokine Induction in Human Cells (interferon α and tumor necrosis factor α secreted into culture media)
Format: cell-based
Settings: compounds generally tested at 30-0.014 μM, incubated 18 to 24 hours, ELISA of supernatant

CC(C)(C)[Si](C)(C)OC1CN(S(C)(=O)=O)Cc2nc3c(N)nc4ccccc4c3n2C1 (centres unmarked) [Example 1, 11-{[tert-Butyl(dimethyl)silyl]oxy}-9-(methylsulfonyl)-9,10,11,12-tetrahydro-8H-[1,4]diazepino[1′,2′:1,2]imidazo[4,5-c]quinolin-6-amine]
induction of production of interferon α and/or tumor necrosis factor α: inducing the production of interferon α and/or tumor necrosis factor α

Nc1nc2ccccc2c2c1nc1n2CCN(Cc2c(F)cccc2F)C1.O=C(O)C(F)(F)F [Example 46]
induction of production of interferon α and/or tumor necrosis factor α: inducing the production of interferon α and/or tumor necrosis factor α
